# Results as given in the supplement of paper PMC10849652.
# Protein sequences, listed by entry. Tags and fused reporters are not part of them. Lines headed by an entry give the natural chain unless they say otherwise; changes in a name come on top.
# UniProt Q07666, whole entry, looked up: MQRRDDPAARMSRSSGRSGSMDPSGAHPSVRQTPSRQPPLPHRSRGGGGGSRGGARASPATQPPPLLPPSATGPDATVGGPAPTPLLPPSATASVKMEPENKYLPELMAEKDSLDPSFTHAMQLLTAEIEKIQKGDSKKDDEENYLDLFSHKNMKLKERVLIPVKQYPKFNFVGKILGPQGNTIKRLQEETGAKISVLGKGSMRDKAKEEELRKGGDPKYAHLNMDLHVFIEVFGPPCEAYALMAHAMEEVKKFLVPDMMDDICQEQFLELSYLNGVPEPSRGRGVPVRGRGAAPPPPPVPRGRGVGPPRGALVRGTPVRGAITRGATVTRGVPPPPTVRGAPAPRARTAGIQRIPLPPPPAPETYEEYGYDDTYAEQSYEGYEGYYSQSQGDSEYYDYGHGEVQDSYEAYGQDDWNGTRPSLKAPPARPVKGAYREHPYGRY
# UniProt Q9H910: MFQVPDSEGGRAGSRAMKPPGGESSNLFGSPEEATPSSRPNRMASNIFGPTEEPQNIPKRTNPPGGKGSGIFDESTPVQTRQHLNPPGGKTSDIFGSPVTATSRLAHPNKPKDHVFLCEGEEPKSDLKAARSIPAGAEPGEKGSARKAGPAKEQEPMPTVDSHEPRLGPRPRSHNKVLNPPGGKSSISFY
# UniProt Q9H0B6: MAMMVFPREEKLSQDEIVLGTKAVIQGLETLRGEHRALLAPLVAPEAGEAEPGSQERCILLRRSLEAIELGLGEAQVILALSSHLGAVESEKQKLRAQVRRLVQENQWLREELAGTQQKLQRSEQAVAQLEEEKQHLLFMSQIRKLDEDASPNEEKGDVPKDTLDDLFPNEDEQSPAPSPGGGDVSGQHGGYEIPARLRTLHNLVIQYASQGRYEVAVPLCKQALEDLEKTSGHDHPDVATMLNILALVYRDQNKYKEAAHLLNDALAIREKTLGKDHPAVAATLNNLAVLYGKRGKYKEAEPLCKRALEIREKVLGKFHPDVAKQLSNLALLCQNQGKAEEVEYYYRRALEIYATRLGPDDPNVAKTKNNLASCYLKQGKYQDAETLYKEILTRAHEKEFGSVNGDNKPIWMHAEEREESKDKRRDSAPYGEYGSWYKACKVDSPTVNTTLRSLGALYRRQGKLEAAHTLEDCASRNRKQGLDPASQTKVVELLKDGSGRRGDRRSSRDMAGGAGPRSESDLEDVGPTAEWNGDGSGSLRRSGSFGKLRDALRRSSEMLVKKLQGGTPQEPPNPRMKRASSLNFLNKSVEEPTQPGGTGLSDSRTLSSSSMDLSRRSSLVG
# UniProt P33947: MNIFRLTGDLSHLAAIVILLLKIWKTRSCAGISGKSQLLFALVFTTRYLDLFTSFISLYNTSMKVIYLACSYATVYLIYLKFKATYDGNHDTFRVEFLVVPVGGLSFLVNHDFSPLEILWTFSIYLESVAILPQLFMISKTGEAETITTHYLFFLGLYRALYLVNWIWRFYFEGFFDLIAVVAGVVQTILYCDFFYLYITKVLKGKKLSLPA
# UniProt Q8IVT5: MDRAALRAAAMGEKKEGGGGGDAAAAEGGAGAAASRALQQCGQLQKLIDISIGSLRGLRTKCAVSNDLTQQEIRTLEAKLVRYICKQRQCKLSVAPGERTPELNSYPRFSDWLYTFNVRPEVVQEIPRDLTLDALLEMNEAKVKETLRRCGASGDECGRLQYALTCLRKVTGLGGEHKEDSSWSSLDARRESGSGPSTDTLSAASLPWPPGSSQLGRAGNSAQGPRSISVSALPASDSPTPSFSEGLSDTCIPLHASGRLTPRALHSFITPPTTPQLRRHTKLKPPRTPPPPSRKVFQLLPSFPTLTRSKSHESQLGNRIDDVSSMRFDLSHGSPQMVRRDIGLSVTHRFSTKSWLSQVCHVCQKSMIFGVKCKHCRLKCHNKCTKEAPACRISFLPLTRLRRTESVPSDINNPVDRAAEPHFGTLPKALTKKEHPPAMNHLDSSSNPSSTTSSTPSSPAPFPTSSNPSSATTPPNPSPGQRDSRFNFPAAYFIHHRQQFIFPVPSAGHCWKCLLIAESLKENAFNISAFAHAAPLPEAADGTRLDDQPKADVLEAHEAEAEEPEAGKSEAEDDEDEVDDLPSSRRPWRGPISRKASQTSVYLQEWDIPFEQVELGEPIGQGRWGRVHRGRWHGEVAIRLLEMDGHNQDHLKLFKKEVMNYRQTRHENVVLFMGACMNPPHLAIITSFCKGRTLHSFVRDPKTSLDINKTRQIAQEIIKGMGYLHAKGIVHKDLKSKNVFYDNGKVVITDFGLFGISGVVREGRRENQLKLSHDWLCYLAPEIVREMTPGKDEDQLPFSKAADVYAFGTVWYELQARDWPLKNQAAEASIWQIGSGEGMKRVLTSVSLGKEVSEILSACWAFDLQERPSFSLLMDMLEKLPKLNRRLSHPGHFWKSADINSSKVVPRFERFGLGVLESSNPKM
# UniProt O15066: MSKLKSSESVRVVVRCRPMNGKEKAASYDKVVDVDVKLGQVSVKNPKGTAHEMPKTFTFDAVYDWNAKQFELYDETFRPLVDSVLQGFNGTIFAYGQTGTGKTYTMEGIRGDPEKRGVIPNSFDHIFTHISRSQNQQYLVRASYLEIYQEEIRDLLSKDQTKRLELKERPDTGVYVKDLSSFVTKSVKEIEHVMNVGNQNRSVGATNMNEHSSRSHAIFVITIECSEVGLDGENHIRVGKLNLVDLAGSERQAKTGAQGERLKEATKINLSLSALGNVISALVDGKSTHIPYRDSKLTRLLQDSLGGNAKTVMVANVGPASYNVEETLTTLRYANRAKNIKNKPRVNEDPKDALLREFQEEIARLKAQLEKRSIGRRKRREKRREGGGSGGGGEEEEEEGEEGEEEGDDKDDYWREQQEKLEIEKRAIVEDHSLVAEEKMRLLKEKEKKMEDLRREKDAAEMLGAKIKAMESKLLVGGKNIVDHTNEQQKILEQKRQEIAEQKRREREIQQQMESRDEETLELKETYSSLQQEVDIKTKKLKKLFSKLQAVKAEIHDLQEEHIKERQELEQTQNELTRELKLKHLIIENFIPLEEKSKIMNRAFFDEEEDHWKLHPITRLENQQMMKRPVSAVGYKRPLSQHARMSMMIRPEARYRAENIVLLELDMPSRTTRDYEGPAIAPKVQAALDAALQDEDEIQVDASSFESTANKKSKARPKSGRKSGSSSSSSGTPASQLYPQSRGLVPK
# UniProt Q9BW62: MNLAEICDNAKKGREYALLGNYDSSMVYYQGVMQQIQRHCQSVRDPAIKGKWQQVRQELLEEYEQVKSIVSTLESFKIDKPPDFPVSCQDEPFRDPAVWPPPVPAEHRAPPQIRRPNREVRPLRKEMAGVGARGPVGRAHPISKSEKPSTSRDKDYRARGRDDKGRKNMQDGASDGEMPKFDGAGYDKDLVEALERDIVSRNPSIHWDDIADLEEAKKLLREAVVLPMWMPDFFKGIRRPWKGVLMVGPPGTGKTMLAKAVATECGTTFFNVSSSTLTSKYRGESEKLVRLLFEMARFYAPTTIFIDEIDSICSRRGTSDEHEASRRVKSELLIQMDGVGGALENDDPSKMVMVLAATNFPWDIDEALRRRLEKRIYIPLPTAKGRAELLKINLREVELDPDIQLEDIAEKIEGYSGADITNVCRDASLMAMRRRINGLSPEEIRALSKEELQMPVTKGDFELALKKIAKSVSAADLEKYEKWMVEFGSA
# UniProt Q8IXQ5, whole entry, looked up: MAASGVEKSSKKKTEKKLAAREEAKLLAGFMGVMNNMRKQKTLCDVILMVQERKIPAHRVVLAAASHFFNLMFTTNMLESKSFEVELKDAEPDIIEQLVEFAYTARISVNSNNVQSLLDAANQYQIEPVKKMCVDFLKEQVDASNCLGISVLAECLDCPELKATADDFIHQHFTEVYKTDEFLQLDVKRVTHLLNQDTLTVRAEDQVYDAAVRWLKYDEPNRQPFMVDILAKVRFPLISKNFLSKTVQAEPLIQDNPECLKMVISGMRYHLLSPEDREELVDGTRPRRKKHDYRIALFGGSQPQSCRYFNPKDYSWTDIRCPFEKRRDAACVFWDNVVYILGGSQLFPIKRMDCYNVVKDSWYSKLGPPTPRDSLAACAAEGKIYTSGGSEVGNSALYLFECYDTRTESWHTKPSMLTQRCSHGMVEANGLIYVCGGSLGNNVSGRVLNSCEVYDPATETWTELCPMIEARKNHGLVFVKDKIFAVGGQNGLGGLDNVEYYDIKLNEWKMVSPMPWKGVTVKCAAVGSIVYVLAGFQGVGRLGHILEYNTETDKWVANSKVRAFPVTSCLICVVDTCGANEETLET
# UniProt O15554, whole entry, looked up: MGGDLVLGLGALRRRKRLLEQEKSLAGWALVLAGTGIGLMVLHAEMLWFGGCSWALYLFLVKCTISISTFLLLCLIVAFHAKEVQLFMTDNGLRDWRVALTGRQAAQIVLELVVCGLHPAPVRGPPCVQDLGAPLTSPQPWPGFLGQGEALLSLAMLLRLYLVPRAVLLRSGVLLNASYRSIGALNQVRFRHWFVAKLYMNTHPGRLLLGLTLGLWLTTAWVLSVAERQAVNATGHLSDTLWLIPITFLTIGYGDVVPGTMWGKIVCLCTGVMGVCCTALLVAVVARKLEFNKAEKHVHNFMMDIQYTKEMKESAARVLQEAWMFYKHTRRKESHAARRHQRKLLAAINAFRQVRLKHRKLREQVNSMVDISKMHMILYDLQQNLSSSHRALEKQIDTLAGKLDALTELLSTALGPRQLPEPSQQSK
# UniProt Q9NS87: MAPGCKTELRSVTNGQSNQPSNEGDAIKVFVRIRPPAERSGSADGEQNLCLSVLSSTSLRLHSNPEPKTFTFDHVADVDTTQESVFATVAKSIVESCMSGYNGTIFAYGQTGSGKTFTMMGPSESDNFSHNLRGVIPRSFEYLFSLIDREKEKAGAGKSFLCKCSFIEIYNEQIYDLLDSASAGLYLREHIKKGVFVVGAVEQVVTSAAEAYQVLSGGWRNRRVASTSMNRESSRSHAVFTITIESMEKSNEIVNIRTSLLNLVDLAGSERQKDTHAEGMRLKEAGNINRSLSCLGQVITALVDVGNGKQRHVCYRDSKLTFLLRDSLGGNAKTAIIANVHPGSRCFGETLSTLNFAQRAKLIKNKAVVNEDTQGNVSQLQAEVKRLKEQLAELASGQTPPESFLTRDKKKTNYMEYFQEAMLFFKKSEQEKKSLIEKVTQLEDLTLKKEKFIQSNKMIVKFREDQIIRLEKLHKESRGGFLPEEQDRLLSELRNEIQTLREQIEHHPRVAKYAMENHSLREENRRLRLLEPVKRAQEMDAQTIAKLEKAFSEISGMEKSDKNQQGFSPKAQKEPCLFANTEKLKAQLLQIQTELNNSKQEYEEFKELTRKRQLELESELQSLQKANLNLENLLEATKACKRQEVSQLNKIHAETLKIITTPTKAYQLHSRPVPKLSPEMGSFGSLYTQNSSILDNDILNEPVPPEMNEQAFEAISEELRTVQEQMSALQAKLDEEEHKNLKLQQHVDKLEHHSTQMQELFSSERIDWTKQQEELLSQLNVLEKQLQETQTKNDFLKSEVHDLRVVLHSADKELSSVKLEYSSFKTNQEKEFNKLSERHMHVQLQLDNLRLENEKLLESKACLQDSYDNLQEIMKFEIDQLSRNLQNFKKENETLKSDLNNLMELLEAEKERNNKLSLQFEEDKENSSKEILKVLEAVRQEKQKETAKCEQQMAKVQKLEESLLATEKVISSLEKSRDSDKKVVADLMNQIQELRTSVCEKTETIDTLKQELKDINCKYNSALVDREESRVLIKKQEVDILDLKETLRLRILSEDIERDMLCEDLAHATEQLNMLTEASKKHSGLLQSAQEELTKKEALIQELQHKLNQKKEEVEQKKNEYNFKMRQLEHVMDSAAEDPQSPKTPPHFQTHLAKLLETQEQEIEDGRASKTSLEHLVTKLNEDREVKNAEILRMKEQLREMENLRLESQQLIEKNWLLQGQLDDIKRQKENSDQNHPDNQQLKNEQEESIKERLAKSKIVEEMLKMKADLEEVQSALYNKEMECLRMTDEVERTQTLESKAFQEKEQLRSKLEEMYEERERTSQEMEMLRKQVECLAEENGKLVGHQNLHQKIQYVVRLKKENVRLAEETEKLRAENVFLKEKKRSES
# The other results are listed elsewhere or left out. Residues, ends and D or L forms follow the SMILES beside them. *: point of attachment. Cbz = O=C(OCc1ccccc1)*
# How the values were obtained:
# Test in all cases: log2 fold change, soluble protein after heating vs DMSO (PISA); higher = thermal stabilisation; K562 cells, 10 uM, 30 min; active = over 0.2 and 3.5 SD of the protein, either way, in both replicates (recomputed)
# [1] = compound: C1COCCN1CCN2C3=CC=CC=C3N=C2NC(=O)C4=CC(=CC=C4)[N+](=O)[O-] [IRAK-1-4 Inhibitor I]
# Summary of the method: (§1)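 K562 cells at 2×10^6 cells/mL were treated with 10 μM compound for 30 min. Aliquots were heated for 3 min across 48°C-58°C, pooled, and extracted in PBS with 0.5% NP-40 at 4°C; soluble protein was the supernatant after 21,000xg for 90 min. Soluble protein was quantified by TMTpro 16plex LC-MS/MS with channel sums equalised, and reported as log2 fold change in thermal stability against DMSO controls, with values from duplicates.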
# [2] = compound: C=CC(=O)N1CCC[C@@H](n2nc(-c3ccc(Oc4ccccc4)cc3)c3c(N)ncnc32)C1 [ibrutinib]
# Summary of the method: as §1
# [3] = compound: CC(=O)c1cnc2ccc(-c3cc(Cl)c(O)c(Cl)c3)nc2c1N[C@H]1CC[C@H](CN(C)C)CC1
# Summary of the method: as §1
# [4] = compound: CC(C)(C)Cn1c(N)nc2ccc(-c3[nH]c(C(C)(C)C)nc3-c3ccc(F)cc3)nc21 [ralimetinib]
# Summary of the method: as §1
# [5] = compound: CC(C)(O)CC(=O)NCCn1ccc2ncnc(Nc3ccc(Oc4cccc(C(F)(F)F)c4)c(Cl)c3)c21
# Summary of the method: as §1
# [6] = compound: CC(C)C1=C2N=C(C=C(N2N=C1)NCC3=CC=CC=C3)NCCCCCCN
# Summary of the method: as §1
# [7] = compound: CC(C)C[C@@H](C=O)NC(=O)[C@H](CC(C)C)NC(=O)[C@H](CC(C)C)NC(=O)OCc1ccccc1
# Summary of the method: as §1
# [8] = compound: CC(C)N(C[C@H]1O[C@@H](n2cnc3c(N)ncnc32)[C@H](O)[C@@H]1O)[C@H]1C[C@@H](CCc2nc3cc(C(C)(C)C)ccc3[nH]2)C1 [pinometostat]
# Summary of the method: as §1
# [9] = compound: CC1=C(C(CC(=O)N1)C2=CC=C(C=C2)C(F)(F)F)C(=O)NC3=C(C=C4C(=C3)C=NN4)F
# Summary of the method: as §1
# [10] = compound: CC1=C(C2=C(C=C1)C(=O)C3=CC=CC=C3N2CCCN)C
# Summary of the method: as §1
Target,log2 fold change [1],log2 fold change [2],log2 fold change [3],log2 fold change [4],log2 fold change [5],log2 fold change [6],log2 fold change [7],log2 fold change [8],log2 fold change [9],log2 fold change [10]
KAZN isoform 3 (UniProt Q674X7),inactive: -0.059,inactive: -0.005,inactive: -0.019,inactive: -0.027,inactive: 0.098,inactive: 0.091,inactive: -0.027,inactive: -0.05,inactive: 0.029,inactive: 0.043
KDM5D isoform 3 (UniProt Q9BY66),inactive: -0.042,inactive: -0.222,inactive: -0.05,inactive: -0.083,inactive: -0.155,inactive: 0.036,inactive: 0.114,inactive: -0.047,,inactive: -0.103
KIF23 (UniProt Q02241),inactive: 0.163,inactive: 0.123,inactive: -0.123,inactive: 0.078,inactive: -0.105,inactive: -0.154,inactive: 0,inactive: 0,inactive: -0.094,inactive: 0
KATNA1 (UniProt O75449),inactive: -0.04,inactive: -0.045,inactive: -0.1,inactive: 0.037,inactive: -0.051,inactive: -0.059,inactive: 0.124,inactive: 0.058,inactive: -0.014,inactive: 0.054
KHDRBS1 (UniProt Q07666),inactive: -0.069,inactive: 0.038,inactive: -0.002,inactive: 0.016,inactive: 0.073,inactive: -0.039,inactive: 0.017,inactive: -0.052,,active: 0.621
JPT2 isoform 2 (UniProt Q9H910),inactive: -0.025,inactive: 0.11,inactive: 0.086,,,inactive: 0.055,,inactive: -0.029,inactive: -0.137,inactive: 0.043
KLC2 (UniProt Q9H0B6),inactive: -0.035,inactive: -0.024,active: -0.309,inactive: 0.041,inactive: -0.02,inactive: -0.107,inactive: 0.083,inactive: 0.023,,inactive: 0.133
KEAP1 (UniProt Q14145),inactive: 0.008,inactive: -0.085,inactive: 0.022,inactive: 0.074,inactive: -0.07,active: -0.233,inactive: 0.023,inactive: 0.109,,inactive: 0.028
KDELR2 (UniProt P33947),inactive: -0.007,inactive: 0.03,inactive: -0.14,inactive: 0.127,inactive: -0.035,inactive: -0.047,active: -0.568,inactive: -0.008,,inactive: 0.103
KDM2A (UniProt Q9Y2K7),inactive: -0.021,inactive: -0.009,,inactive: -0.022,inactive: 0.014,inactive: -0.137,inactive: -0.137,inactive: 0,inactive: 0.149,inactive: -0.265
KPNA6 (UniProt O60684),inactive: -0.046,inactive: -0.032,inactive: -0.04,inactive: 0.077,inactive: -0.047,inactive: -0.239,inactive: 0.087,inactive: 0.087,,inactive: -0.15
KIF14 (UniProt Q15058),inactive: 0.084,inactive: 0.156,inactive: 0.034,,inactive: -0.088,inactive: 0.047,,inactive: 0.045,,
KCNK1 (UniProt O00180),inactive: 0.043,inactive: 0.146,,inactive: 0.197,inactive: -0.025,inactive: -0.069,inactive: 0.123,inactive: -0.03,inactive: 0.179,
KSR1 (UniProt Q8IVT5),inactive: -0.07,inactive: -0.084,active: -0.807,inactive: 0.065,inactive: -0.231,inactive: -0.085,inactive: 0.085,inactive: 0.035,,inactive: 0.044
KIF3B (UniProt O15066),inactive: 0.06,inactive: -0.029,inactive: 0.016,inactive: -0.048,inactive: 0.018,inactive: -0.021,inactive: 0.068,inactive: 0.033,,inactive: -0.008
KATNAL1 (UniProt Q9BW62),inactive: 0.08,inactive: 0.007,inactive: -0.109,,inactive: -0.228,,,inactive: -0.274,,inactive: 0.136
KLHL7 isoform 3 (UniProt Q8IXQ5),inactive: 0.296,inactive: 0.015,inactive: -0.312,,inactive: -0.146,,,inactive: 0.079,inactive: 0.014,
KCNN4 (UniProt O15554),inactive: 0.066,inactive: -0.202,inactive: -0.085,inactive: -0.051,,inactive: -0.108,inactive: 0.061,inactive: 0.096,inactive: -0.103,inactive: -0.005
JMJD4 (UniProt Q9H9V9),inactive: 0.166,inactive: -0.077,inactive: -0.139,,,,,inactive: -0.152,inactive: -0.171,
KIF15 (UniProt Q9NS87),inactive: -0.072,inactive: 0.001,inactive: 0.211,inactive: 0.21,inactive: -0.001,inactive: -0.098,inactive: 0.146,inactive: 0.165,,inactive: 0.02
KLHDC8B (UniProt Q8IXV7),inactive: -0.016,inactive: -0.361,inactive: -0.001,inactive: -0.032,,inactive: 0.088,inactive: -0.088,inactive: 0.091,,inactive: -0.056
KLHDC4 (UniProt Q8TBB5),inactive: -0.008,inactive: -0.011,inactive: -0.008,inactive: 0.062,inactive: 0.002,inactive: 0.065,inactive: 0.017,inactive: 0.199,,inactive: 0.159
KBTBD8 (UniProt Q8NFY9),inactive: -0.319,inactive: -0.054,inactive: -0.043,inactive: 0.09,inactive: -0.086,,inactive: -0.058,inactive: 0.049,inactive: 0.121,inactive: 0.268
KIF13B (UniProt Q9NQT8),inactive: -0.006,inactive: 0.051,inactive: -0.013,,inactive: -0.086,inactive: -0.113,,inactive: 0.089,,inactive: 0.03
KAT7 (UniProt O95251),inactive: 0.059,inactive: 0.006,inactive: -0.369,inactive: 0.217,,inactive: 0.1,inactive: 0.03,inactive: -0.095,inactive: -0.102,
KNOP1 (UniProt Q1ED39),inactive: 0.011,inactive: 0.098,inactive: 0.017,inactive: 0.181,,inactive: 0.148,inactive: 0.017,inactive: 0.246,inactive: -0.206,inactive: -0.282

# An excerpt of these results, as tab-separated lines.
Target	log2 fold change [1]	log2 fold change [2]	log2 fold change [3]	log2 fold change [4]	log2 fold change [5]	log2 fold change [6]	log2 fold change [7]	log2 fold change [8]	log2 fold change [9]	log2 fold change [10]
KAZN isoform 3 (UniProt Q674X7)	inactive: -0.059	inactive: -0.005	inactive: -0.019	inactive: -0.027	inactive: 0.098	inactive: 0.091	inactive: -0.027	inactive: -0.05	inactive: 0.029	inactive: 0.043
KSR1 (UniProt Q8IVT5)	inactive: -0.07	inactive: -0.084	active: -0.807	inactive: 0.065	inactive: -0.231	inactive: -0.085	inactive: 0.085	inactive: 0.035		inactive: 0.044
